# Measured values from the supplement of paper PMC10849652.
# Sequences of proteins named here, by UniProt entry; tags and fusion partners are left off. A change or cut given only in a name is not applied to a line headed by its entry.
# UniProt Q15013: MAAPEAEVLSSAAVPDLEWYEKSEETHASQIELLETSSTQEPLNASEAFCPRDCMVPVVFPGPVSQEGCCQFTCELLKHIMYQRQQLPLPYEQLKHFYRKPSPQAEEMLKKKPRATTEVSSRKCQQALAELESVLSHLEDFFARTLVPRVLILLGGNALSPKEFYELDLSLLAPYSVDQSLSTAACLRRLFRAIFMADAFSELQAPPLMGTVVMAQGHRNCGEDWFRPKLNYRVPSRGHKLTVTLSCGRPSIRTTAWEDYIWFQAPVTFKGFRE
# UniProt P29966: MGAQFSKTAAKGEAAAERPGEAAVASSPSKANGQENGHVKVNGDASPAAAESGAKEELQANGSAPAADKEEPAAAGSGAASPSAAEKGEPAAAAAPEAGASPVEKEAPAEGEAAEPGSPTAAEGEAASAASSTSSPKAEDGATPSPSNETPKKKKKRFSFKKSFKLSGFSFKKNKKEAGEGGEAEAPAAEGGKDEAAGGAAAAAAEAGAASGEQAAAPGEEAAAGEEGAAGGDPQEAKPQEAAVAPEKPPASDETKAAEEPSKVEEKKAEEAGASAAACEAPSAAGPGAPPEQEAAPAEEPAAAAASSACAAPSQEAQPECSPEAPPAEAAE
# UniProt Q9HD34: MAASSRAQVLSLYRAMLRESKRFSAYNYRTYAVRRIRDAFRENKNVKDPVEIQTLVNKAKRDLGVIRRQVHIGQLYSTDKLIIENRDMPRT
# UniProt P49137, whole entry, looked up: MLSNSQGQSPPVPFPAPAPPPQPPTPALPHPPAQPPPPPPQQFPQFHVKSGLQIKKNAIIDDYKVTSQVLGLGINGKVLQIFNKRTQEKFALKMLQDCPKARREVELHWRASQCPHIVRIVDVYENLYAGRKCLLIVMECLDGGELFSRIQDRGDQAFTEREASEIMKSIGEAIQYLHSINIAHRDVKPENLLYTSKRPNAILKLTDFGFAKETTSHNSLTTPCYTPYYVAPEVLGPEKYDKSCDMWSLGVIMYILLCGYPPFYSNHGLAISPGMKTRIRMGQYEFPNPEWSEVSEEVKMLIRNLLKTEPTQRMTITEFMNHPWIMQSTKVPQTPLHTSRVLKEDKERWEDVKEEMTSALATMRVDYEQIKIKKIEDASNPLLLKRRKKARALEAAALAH
# UniProt Q9NU23: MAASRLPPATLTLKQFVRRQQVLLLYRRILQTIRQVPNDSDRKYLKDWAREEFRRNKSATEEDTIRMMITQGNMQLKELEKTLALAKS
# UniProt Q14766: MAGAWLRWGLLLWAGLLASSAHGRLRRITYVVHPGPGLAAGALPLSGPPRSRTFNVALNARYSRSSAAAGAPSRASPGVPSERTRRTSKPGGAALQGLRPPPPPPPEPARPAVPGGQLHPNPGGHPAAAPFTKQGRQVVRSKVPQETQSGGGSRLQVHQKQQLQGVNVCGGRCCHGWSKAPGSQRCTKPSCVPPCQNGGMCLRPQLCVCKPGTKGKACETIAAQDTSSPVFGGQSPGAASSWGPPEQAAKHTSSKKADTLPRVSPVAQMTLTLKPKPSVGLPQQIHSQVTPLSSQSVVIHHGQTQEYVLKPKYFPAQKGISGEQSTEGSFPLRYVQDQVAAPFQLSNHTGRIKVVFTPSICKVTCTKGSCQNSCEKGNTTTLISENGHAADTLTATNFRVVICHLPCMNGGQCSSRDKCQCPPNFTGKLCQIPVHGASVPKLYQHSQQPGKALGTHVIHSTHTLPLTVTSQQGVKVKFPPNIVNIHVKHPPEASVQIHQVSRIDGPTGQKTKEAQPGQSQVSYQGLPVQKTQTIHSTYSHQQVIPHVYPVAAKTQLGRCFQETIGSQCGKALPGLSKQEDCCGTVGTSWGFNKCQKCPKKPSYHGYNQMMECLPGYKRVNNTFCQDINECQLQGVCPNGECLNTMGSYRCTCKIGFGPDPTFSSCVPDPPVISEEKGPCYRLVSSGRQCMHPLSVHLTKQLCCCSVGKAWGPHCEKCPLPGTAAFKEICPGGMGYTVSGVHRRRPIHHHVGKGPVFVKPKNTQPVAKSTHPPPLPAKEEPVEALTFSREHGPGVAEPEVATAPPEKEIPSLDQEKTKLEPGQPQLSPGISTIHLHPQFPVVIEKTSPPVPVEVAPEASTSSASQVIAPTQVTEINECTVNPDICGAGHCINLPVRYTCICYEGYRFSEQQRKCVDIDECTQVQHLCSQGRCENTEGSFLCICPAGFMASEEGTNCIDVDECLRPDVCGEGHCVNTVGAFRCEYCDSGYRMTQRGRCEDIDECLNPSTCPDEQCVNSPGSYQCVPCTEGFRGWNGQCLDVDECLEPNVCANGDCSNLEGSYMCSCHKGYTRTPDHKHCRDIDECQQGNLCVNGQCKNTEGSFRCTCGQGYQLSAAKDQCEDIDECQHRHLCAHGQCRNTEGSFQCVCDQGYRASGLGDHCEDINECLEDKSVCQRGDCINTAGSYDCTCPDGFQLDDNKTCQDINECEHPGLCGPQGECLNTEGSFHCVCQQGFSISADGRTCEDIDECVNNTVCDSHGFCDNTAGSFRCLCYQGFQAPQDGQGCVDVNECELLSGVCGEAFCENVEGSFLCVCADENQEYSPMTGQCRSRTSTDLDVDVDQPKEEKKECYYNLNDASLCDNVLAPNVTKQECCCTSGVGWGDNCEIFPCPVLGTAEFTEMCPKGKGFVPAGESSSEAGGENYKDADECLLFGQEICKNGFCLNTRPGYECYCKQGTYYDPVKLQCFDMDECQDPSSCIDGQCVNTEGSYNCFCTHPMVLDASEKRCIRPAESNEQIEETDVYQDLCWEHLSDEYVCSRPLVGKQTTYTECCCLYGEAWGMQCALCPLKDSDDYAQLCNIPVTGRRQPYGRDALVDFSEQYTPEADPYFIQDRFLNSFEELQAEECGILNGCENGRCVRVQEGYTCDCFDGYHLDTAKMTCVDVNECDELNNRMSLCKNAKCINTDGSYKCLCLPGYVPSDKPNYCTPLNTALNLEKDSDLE
# UniProt Q16644, whole entry, looked up: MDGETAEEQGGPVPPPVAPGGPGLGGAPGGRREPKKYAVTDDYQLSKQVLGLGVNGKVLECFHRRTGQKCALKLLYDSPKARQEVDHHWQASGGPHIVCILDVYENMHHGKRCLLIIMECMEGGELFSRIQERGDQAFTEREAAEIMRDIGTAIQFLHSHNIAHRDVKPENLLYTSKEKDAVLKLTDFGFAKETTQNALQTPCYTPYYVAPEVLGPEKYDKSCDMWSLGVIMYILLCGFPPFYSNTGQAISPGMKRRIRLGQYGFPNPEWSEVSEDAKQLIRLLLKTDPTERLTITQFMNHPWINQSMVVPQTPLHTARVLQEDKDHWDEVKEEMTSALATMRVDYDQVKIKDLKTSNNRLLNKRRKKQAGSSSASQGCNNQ
# UniProt Q9NTJ4: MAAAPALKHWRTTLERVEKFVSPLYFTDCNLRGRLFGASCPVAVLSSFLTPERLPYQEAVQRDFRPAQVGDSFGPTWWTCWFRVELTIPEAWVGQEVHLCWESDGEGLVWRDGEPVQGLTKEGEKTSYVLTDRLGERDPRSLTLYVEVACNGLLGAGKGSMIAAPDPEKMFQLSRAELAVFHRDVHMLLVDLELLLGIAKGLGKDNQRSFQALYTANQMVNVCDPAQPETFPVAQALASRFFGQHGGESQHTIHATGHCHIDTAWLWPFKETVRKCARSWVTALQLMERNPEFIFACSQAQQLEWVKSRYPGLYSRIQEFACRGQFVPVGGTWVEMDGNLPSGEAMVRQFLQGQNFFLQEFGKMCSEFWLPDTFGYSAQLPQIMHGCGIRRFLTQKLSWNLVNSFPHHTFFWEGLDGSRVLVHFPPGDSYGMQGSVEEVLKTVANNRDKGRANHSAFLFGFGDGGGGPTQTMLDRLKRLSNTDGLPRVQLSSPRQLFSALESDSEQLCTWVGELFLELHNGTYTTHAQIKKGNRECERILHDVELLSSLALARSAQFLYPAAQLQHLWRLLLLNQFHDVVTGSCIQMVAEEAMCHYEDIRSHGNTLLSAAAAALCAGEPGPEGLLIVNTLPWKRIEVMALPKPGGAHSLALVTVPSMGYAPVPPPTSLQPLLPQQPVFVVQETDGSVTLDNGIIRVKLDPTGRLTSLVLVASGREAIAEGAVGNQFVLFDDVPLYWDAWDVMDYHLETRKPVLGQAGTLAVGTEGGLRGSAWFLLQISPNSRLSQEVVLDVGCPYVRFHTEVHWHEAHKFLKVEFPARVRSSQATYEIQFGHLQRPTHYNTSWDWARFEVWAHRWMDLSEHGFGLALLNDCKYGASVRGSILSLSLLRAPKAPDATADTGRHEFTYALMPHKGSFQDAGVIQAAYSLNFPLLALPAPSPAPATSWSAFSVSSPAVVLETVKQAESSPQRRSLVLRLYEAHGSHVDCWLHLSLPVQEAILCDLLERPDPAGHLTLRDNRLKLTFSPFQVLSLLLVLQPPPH
# UniProt Q8N5G2: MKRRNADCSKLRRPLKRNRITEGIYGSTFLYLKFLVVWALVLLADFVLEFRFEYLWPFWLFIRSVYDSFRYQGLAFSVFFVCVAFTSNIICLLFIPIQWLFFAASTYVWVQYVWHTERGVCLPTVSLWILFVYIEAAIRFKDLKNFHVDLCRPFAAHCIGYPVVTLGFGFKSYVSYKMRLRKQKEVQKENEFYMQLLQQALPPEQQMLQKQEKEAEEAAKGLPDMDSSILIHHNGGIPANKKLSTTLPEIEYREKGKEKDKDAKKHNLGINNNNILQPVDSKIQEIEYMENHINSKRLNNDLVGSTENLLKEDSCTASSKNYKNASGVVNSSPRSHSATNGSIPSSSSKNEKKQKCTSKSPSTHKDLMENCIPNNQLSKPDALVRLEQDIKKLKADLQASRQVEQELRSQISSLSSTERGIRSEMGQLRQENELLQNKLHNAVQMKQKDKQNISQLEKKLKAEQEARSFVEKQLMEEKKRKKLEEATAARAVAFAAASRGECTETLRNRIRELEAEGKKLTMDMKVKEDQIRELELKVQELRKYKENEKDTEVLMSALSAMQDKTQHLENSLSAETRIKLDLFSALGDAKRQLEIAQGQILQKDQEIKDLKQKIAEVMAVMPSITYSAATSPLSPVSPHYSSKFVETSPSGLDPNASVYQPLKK
# UniProt Q8WWC4: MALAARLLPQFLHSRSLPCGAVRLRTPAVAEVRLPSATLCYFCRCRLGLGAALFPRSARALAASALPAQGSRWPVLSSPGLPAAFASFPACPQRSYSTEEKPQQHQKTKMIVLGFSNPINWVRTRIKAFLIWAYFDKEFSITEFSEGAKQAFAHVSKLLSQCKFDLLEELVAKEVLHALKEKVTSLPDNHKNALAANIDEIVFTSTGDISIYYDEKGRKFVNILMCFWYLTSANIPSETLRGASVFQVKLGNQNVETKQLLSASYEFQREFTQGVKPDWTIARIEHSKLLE
# UniProt O00754: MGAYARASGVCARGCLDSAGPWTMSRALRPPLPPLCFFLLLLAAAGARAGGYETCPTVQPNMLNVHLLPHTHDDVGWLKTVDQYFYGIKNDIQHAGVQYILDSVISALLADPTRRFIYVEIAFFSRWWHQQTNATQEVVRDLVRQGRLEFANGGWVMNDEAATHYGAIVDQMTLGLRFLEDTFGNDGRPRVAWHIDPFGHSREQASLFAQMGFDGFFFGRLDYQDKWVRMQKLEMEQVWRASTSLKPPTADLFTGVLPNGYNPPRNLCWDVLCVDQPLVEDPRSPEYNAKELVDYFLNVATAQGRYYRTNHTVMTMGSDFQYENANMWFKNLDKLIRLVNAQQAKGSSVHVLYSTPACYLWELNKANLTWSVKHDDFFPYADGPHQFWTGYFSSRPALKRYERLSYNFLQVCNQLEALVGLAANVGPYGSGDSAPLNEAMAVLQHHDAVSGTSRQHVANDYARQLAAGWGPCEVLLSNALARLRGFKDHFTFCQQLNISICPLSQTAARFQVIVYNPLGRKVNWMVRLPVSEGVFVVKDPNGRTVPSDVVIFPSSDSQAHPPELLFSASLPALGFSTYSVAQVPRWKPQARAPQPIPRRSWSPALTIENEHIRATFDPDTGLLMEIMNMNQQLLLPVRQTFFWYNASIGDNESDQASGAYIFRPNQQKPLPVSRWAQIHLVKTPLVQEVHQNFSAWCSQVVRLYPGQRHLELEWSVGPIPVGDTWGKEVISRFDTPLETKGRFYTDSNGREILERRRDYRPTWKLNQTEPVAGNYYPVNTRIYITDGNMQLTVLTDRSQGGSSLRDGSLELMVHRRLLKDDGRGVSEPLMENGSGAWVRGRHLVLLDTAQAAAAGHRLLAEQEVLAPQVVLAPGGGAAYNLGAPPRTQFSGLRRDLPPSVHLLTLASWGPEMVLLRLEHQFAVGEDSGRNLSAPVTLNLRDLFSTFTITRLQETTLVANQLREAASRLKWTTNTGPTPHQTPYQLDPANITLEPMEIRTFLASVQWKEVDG
# UniProt Q15691: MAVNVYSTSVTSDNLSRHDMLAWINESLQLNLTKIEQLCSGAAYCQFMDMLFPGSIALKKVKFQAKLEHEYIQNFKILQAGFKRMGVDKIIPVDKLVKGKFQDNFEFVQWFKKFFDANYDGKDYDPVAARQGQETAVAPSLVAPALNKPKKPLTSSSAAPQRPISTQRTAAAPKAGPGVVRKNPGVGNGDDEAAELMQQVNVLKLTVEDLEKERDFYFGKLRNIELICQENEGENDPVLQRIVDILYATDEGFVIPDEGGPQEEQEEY
# The list shows a part of the results.
# Legend:
# Assay in all cases: log2 fold change, soluble protein after heating vs DMSO (PISA); higher = thermal stabilisation; K562 cells, 10 uM, 30 min; active = over 0.2 and 3.5 SD of the protein, either way, in both replicates (recomputed)
# [1] = compound: C#Cc1cccc(Nc2ncnc3cc(OCCOC)c(OCCOC)cc23)c1 [erlotinib]
# Method in brief: (§1)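 Values are thermal stability changes relative to control samples and are taken from duplicates. They are stated as log2 fold changes. Before quantification by TMTpro 16plex LC-MS/MS with equalised channel sums, K562 cells at 2×10^6 cells/mL were treated with 10 μM compound for 30 min, heated in aliquots for 3 min across 48°C-58°C, pooled, extracted in PBS with 0.5% NP-40 at 4°C, and centrifuged at 21,000xg for 90 min to give the soluble supernatant.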
# [2] = compound: C/C(=N\NC(=O)C1=CC(=CC=C1)S(=O)(=O)N2CCOCC2)/C3=C(C=CC(=C3)Cl)O
# Method in brief: as §1
# [3] = compound: C1=CC(=C(C=C1Cl)C2=NC3=NC=CN=C3C(=N2)NC4=CC=NC=C4)F
# Method in brief: as §1
# [4] = compound: C1=CC(=CC=C1C2=NC3=C(N2)C=C(C=C3)C(=O)N)OC4=CC=C(C=C4)Cl
# Method in brief: as §1
# [5] = compound: C1=CC2=C(C=CC(=C2)/C=C\3/C(=O)NC(=NCC4=CC=CS4)S3)N=C1
# Method in brief: as §1
# [6] = compound: C1=CC2=NC=CN=C2C=C1/C=C/3\C(=O)NC(=O)S3
# Method in brief: as §1
# [7] = compound: C1=CC=C(C=C1)C2=NC(=C(N2)C3=CC=NC=C3)C4=CC(=C(C=C4)Cl)O
# Method in brief: as §1
# [8] = compound: C1=CC=C2C(=C1)C3=NNC4=CC=CC(=C43)C2=O
# Method in brief: as §1
# [9] = compound: C1CCN(C1)C(=O)NC2=CC=CC(=C2)NC3=NC=C(C(=N3)NCCC4=CN=CN4)Br
# Method in brief: as §1
# [10] = compound: C1CN(CCC1(CC2=CC=C(C=C2)Cl)N)C3=NC=NC4=C3C=CN4
# Method in brief: as §1
Target,log2 fold change [1],log2 fold change [2],log2 fold change [3],log2 fold change [4],log2 fold change [5],log2 fold change [6],log2 fold change [7],log2 fold change [8],log2 fold change [9],log2 fold change [10]
MAD2L1BP isoform 3 (UniProt Q15013),inactive: 0.044,inactive: 0.01,inactive: 0.049,inactive: 0.035,inactive: -0.062,inactive: 0.064,inactive: 0.012,inactive: -0.008,inactive: -0.011,inactive: 0.007
MARCKS (UniProt P29966),inactive: -0.033,inactive: -0.032,inactive: 0.061,inactive: 0.045,inactive: -0.026,inactive: 0.048,inactive: 0.119,inactive: 0.025,inactive: 0.01,inactive: 0.118
LYRM4 (UniProt Q9HD34),inactive: 0.008,inactive: 0.025,inactive: 0.126,inactive: -0.032,inactive: -0.09,inactive: 0.002,inactive: -0.005,inactive: 0.018,inactive: 0.043,inactive: -0.01
MAPKAPK2 (UniProt P49137),inactive: 0.033,inactive: 0.059,inactive: 0.186,inactive: -0.011,inactive: 0.064,inactive: 0.008,inactive: 0.207,inactive: -0.069,inactive: 0.047,inactive: 0.002
MAPK3 (UniProt P27361),inactive: -0.001,inactive: 0.028,inactive: 0.098,inactive: 0.002,inactive: -0.068,inactive: 0.005,inactive: -0.013,inactive: 0.016,inactive: -0.058,inactive: 0.007
MAPK12 (UniProt P53778),inactive: -0.039,inactive: -0.033,inactive: -0.093,inactive: -0.053,inactive: 0.008,inactive: -0.074,inactive: 0.073,inactive: 0.003,inactive: 0.087,inactive: 0.024
LYRM2 (UniProt Q9NU23),inactive: -0.023,inactive: 0.001,inactive: 0.051,inactive: -0.007,inactive: 0.026,inactive: 0.026,inactive: 0.013,inactive: -0.003,inactive: -0.007,inactive: -0.004
MAP4 (UniProt E7EVA0),inactive: 0,inactive: -0.093,inactive: -0.219,inactive: 0.063,inactive: -0.087,inactive: 0.058,inactive: -0.086,inactive: -0.003,inactive: 0.034,inactive: -0.053
LTBP1 isoform 4 (UniProt Q14766),inactive: 0.046,inactive: -0.18,inactive: 0.106,inactive: 0.063,inactive: 0.038,inactive: 0.01,inactive: 0.196,inactive: 0.047,inactive: 0.07,inactive: 0.354
MAK16 (UniProt Q9BXY0),inactive: 0.087,inactive: -0.1,inactive: -0.172,inactive: 0.108,inactive: 0.01,inactive: 0.067,inactive: -0.02,inactive: 0.001,inactive: 0.024,inactive: -0.011
MACC1 (UniProt Q6ZN28),inactive: -0.02,inactive: 0.051,inactive: 0.028,inactive: 0.092,inactive: 0.063,inactive: 0.064,inactive: 0.008,inactive: -0.149,inactive: -0.085,inactive: 0.179
LSM3 (UniProt P62310),inactive: 0.065,inactive: -0.018,inactive: 0.081,inactive: -0.036,inactive: -0.013,inactive: 0.013,inactive: 0.132,inactive: -0.023,inactive: 0.004,inactive: 0.019
LYSMD2 (UniProt Q8IV50),inactive: 0.036,inactive: 0.021,inactive: -0.007,inactive: 0.006,inactive: 0.024,inactive: 0.006,inactive: -0.05,inactive: -0.013,inactive: -0.005,inactive: -0.03
LYAR (UniProt Q9NX58),inactive: -0.236,inactive: -0.234,inactive: -0.716,inactive: -0.011,inactive: -0.08,inactive: 0,inactive: -0.182,inactive: -0.031,inactive: -0.013,inactive: -0.249
LSM14A isoform 2 (UniProt Q8ND56),inactive: 0.051,inactive: -0.006,inactive: -0.079,inactive: -0.017,inactive: 0.039,inactive: 0,inactive: -0.062,inactive: 0.038,inactive: 0.031,inactive: -0.086
MAP2K7 isoform 4 (UniProt O14733),inactive: 0.021,inactive: -0.005,inactive: 0.061,inactive: 0.017,inactive: 0.01,inactive: 0.017,inactive: -0.009,inactive: -0.032,inactive: -0.012,inactive: 0.023
MAPKAPK3 (UniProt Q16644),inactive: 0.034,inactive: -0.012,active: 0.431,inactive: -0.041,inactive: 0.024,inactive: -0.069,inactive: 0.256,inactive: 0.029,inactive: 0.021,inactive: -0.054
LRSAM1 (UniProt Q6UWE0),inactive: -0.011,inactive: 0.034,inactive: 0.053,inactive: 0.026,inactive: -0.029,inactive: 0.083,inactive: -0.001,inactive: 0.048,inactive: -0.077,inactive: -0.031
LSM8 (UniProt O95777),inactive: -0.031,inactive: -0.002,inactive: -0.026,inactive: -0.017,inactive: 0.043,inactive: 0.038,inactive: -0.004,inactive: -0.016,inactive: -0.028,inactive: 0.012
MAGI1 (UniProt Q96QZ7),inactive: -0.022,inactive: 0,inactive: -0.083,inactive: 0.049,inactive: -0.008,inactive: 0.018,inactive: -0.015,inactive: -0.016,inactive: 0.012,inactive: -0.047
MAGED2 (UniProt Q9UNF1),inactive: 0.36,inactive: -0.306,inactive: -0.04,inactive: 0.001,inactive: 0.189,inactive: 0.024,inactive: -0.011,inactive: 0.023,inactive: -0.021,inactive: 0.106
MAN2C1 isoform 4 (UniProt Q9NTJ4),inactive: -0.003,inactive: -0.138,inactive: 0.158,inactive: 0.058,inactive: 0.046,inactive: 0.07,inactive: -0.017,inactive: 0.023,inactive: -0.025,inactive: 0.162
MACO1 (UniProt Q8N5G2),inactive: -0.064,inactive: 0.003,inactive: -0.038,inactive: 0.051,inactive: -0.022,inactive: -0.107,inactive: -0.008,inactive: 0.006,inactive: -0.076,inactive: -0.062
MAIP1 (UniProt Q8WWC4),inactive: -0.02,inactive: 0.006,inactive: -0.012,inactive: 0.002,inactive: 0.02,inactive: 0.042,inactive: 0.066,inactive: 0.037,inactive: -0.024,inactive: 0.012
LTN1 isoform 3 (UniProt O94822),inactive: 0.026,inactive: 0.114,inactive: -0.021,inactive: -0.02,inactive: 0.032,inactive: -0.021,inactive: -0.027,inactive: -0.056,inactive: -0.027,inactive: -0.031
LUC7L2 (UniProt Q9Y383),inactive: -0.001,inactive: 0.122,inactive: 0.013,inactive: 0.098,inactive: -0.218,inactive: -0.031,inactive: 0.008,inactive: -0.143,inactive: -0.03,inactive: -0.072
MAN2B1 (UniProt O00754),inactive: -0.035,inactive: -0.014,inactive: -0.03,inactive: 0.086,inactive: 0.014,inactive: 0.031,inactive: -0.044,inactive: -0.062,inactive: -0.016,inactive: 0.003
MAPRE1 (UniProt Q15691),inactive: -0.022,inactive: 0.053,inactive: 0.05,inactive: -0.011,inactive: 0.001,inactive: 0.037,inactive: 0.012,inactive: 0.036,inactive: 0,inactive: 0.031
MAPRE2 (UniProt Q15555),inactive: 0.129,inactive: 0.176,inactive: -0.344,inactive: -0.03,inactive: -0.208,inactive: 0.016,inactive: 0.165,inactive: 0.089,inactive: -0.11,inactive: 0.061

# A different layout for some results above:
Target | log2 fold change [1] | log2 fold change [2] | log2 fold change [3] | log2 fold change [4] | log2 fold change [5] | log2 fold change [6] | log2 fold change [7] | log2 fold change [8] | log2 fold change [9] | log2 fold change [10]
MAGI1 (UniProt Q96QZ7) | inactive: -0.022 | inactive: 0 | inactive: -0.083 | inactive: 0.049 | inactive: -0.008 | inactive: 0.018 | inactive: -0.015 | inactive: -0.016 | inactive: 0.012 | inactive: -0.047
MAGED2 (UniProt Q9UNF1) | inactive: 0.36 | inactive: -0.306 | inactive: -0.04 | inactive: 0.001 | inactive: 0.189 | inactive: 0.024 | inactive: -0.011 | inactive: 0.023 | inactive: -0.021 | inactive: 0.106
